Assay results from the supplement of paper PMC11098740.
Where a name gives a salt, the structure may show the parent alone. The list shows a part of the results. Many values rest on one well or one pass, so single values are uncertain.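 Test system: a mixed pool of 41 HAP1 clones in which 61 cancer-associated proteins carry fluorescent tags inserted into introns, and each clone is identified from its image pattern. Read-outs are compared with DMSO-treated control wells. The BRD4 degrader dBET6 served as the positive control.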

Protein sequences, listed by entry. Tags and fused reporters are not part of them.
UniProt O14980, whole entry: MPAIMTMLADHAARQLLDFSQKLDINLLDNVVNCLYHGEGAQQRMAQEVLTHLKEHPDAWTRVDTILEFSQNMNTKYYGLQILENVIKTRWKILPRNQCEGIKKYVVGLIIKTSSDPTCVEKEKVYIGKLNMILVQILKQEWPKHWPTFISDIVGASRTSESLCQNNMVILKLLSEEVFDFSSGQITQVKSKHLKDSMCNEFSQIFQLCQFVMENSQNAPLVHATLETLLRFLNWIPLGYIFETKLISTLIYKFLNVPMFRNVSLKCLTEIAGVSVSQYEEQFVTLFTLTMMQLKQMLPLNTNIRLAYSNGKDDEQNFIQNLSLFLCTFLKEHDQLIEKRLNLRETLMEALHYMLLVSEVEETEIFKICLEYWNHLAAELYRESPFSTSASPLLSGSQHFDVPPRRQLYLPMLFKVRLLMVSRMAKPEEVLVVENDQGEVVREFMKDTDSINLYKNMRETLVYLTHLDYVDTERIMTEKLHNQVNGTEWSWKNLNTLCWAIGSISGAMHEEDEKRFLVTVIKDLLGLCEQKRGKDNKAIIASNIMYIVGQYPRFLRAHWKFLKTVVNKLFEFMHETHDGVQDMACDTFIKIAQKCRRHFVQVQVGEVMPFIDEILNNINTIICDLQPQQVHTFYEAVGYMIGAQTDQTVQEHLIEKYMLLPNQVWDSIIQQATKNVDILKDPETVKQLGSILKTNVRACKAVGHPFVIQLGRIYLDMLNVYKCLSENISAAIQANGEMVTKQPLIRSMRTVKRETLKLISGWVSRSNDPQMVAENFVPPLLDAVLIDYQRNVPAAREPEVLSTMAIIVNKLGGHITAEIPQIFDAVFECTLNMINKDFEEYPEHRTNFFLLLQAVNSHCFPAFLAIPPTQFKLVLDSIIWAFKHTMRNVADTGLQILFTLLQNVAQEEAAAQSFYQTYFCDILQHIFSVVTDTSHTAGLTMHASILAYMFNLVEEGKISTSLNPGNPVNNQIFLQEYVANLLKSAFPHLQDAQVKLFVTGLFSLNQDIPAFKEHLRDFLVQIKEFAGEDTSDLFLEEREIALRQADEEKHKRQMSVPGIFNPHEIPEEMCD

The molecules below were run against XPO1 (intron 15 mScarlet tag, HAP1) (UniProt O14980) (assay: XPO1 fluorescence intensity change vs DMSO (log2 fold change); higher = more XPO1 protein). Settings: 6 h.

Row | Compound | XPO1 fluorescence intensity change (log2)
1 | C[C@H]1O[C@H](O[C@H]2[C@H](O)[C@@H](O)[C@@H](O[C@H]3[C@H](O)[C@@H](O)C(O)O[C@@H]3CO)O[C@@H]2CO)[C@H](O)[C@@H](O)[C@@H]1N[C@H]1C=C(CO)[C@@H](O)[C@H](O)[C@H]1O (stereo partly drawn) [Acarbose] (10.0006 µM) | 0.0307
2 | Nc1nc(F)nc2c1ncn2[C@@H]1O[C@H](CO)[C@@H](O)[C@@H]1O [Fludarabine] (9.99886 µM) | 0.0186
3 | COc1cc(C(=O)O)ccc1NC(=O)[C@@H]1N[C@@H](CC(C)(C)C)[C@](C#N)(c2ccc(Cl)cc2F)[C@H]1c1cccc(Cl)c1F [Idasanutlin] (20 µM) | -0.0266
4 | Cc1cc2cc3c(C)cc(=O)oc3c(C)c2o1 [Trioxsalen] (10.0007 µM) | 0.0928
5 | NC(=O)c1cnccn1 [Pyrazinamide] (10 µM) | 0.169
6 | CC[C@@]1(O)C(=O)OCc2c1cc1n(c2=O)Cc2cc3c(CN(C)C)c(O)ccc3nc2-1 [Topotecan hydrochloride hydrate] (20 µM) | -0.209
7 | N#CC[C@H](C1CCCC1)n1cc(-c2ncnc3[nH]ccc23)cn1 [Ruxolitinib] (20 µM) | -0.126
8 | O=C(O)c1cnccn1 [Pyrazinoic Acid] (10 µM) | -0.00788
